Test results: patent publication US20210162067A1 (SIRNAOMICS, INC., priority 2018, published 2021)

Test: peptide synthesis
Settings: whole synthesis, RPHPLC

In the case of “K(HHHK)4CSSC (KHHHKHHHKHHHKHHHKCSSC; branched peptide)”, the “purity (crude or final not stated)” value is reported as 90.0%.
